Measurements reported in article PMC11339918, “Extracellular Domain of IL-10 Receptor Chain-2 (IL-10R2) and Its Arginine-Containing Peptides Are Susceptible Substrates for Human Prostate Kallikrein-2 (KLK2)” (Biochemistry, 2024).

The chains behind the UniProt entries cited, without tags or fusion partners. Residues count along the entry.
UniProt P20151, 25-261 limits assumed: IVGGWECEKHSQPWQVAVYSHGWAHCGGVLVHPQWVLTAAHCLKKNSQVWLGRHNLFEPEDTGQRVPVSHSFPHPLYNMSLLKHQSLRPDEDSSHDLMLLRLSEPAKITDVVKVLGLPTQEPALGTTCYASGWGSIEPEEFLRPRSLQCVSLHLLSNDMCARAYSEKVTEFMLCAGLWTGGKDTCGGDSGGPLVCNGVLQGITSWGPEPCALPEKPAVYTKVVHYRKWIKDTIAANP

Target: Recombinant KLK2 (Homo sapiens, UniProt P20151)
Test: Hydrolysis of FRET peptides by recombinant KLK2 (kinetic parameters)
Conditions: Table 3, FRET peptides derived from the IL-10R2 ectodomain
Description: Obtained from a baculovirus-insect cell line system, purified, and activated as previously reported,[14] MUGB (4-methylumbelliferyl p-guanidino benzoate hydrochloride) was used for the spectrofluorimetric determination of molar concentrations of active KLK2.[15] KLK3 was obtained and assayed as previously reported.[3]
All of the FRET peptides were obtained by solid-phase peptide synthesis. The purity of FRET peptides to 95% or higher was obtained by semipreparative HPLC on a C18 reversed-phase column and used as protease substrates, as previously reported.[5] Details about the purification and quality of the FRET peptides are provided in the Supporting Information. The enzymatic kinetic measurements were all performed with FRET peptides as previously described.[5]
Five series of FRET peptides derived from Abz-KLRSSK-Q-EDDnp were assayed with KLK2 in 20 mM Tris–HCl, pH 8.0, and 1 M sodium citrate. The specificity of the S1 subsite was explored with the peptide series Abz-KLXSSK-Q-EDDnp, where X = amino acid R, A, N, D, F, G, Q, E, H, I, L, M, P, S, Y, T, V, or K. Only the peptide Abz-KLRSSKQ-EDDnp was hydrolyzed (kcat = 11.3 s^–1, Km = 6.5 μM, and kcat/Km = 1738 mM^–1 s^–1). The specificity of subsites S3, S2, S1’, and S2’ was explored by the FRET peptide series Abz-XLRSSKQ-EDDnp (for S3), Abz-KXRSSKQ-EDDnp (for S2), Abz-KLRXSKQ-EDDnp (for S1’), and Abz-KLRSXKQ-EDDnp (for S2’). All of them were hydrolyzed only at R–S or R–X peptide bonds, and the kinetic parameters for their hydrolysis by KLK2 are listed in Table 1.

| Structure (SMILES) | Km | kcat | kcat/Km |
| --- | --- | --- | --- |
| CC(C)C[C@H](NC(=O)[C@H](CC(N)=O)NC(=O)[C@H](CCCNC(=N)N)NC(=O)[C@H](CC(C)C)NC(=O)[C@@H](NC(=O)c1ccccc1N)C(C)C)C(=O)N[C@@H](CCC(N)=O)C(=O)NCCNc1ccc([N+](=O)[O-])cc1[N+](=O)[O-] | 0.39 µM | 1.61 s^–1 | 4 mM s–1 |
| CC(C)[C@H](NC(=O)[C@H](CCC(N)=O)NC(=O)c1ccccc1N)C(=O)N[C@@H](CCCNC(=N)N)C(=O)NCC(=O)N[C@@H](Cc1ccccc1)C(=O)N[C@@H](CCC(N)=O)C(=O)NCCNc1ccc([N+](=O)[O-])cc1[N+](=O)[O-] | 1.15 µM | 0.77 s^–1 | 670 mM s–1 |
| CSCC[C@H](NC(=O)[C@H](Cc1cnc[nH]1)NC(=O)c1ccccc1N)C(=O)N[C@@H](CCCNC(=N)N)C(=O)N[C@@H](Cc1ccccc1)C(=O)N[C@@H](CC(C)C)C(=O)N[C@@H](CCC(N)=O)C(=O)NCCNc1ccc([N+](=O)[O-])cc1[N+](=O)[O-] | 0.51 µM | 0.51 s^–1 | 1000 mM s–1 |
| CSCC[C@H](NC(=O)[C@H](CCCNC(=N)N)NC(=O)[C@@H](NC(=O)[C@H](CC(N)=O)NC(=O)c1ccccc1N)C(C)C)C(=O)N[C@@H](CC(N)=O)C(=O)N[C@@H](CCC(N)=O)C(=O)NCCNc1ccc([N+](=O)[O-])cc1[N+](=O)[O-] | 0.94 µM | 1.28 s^–1 | 1362 mM s–1 |

The match of structure and compound is tentative.
